No constants are given. Whether binding was seen depends on the method and setting. For part of these data: Binding seen in cells or lysates may run through a third protein. Some entries that bind do so weakly or less than the wild type. One block for each substance: values may come before it.
How the values were obtained:
[1] = molecular target: human DJ-1, wild type, with Myc and DDK (Flag) tags on the C-terminus (human) (UniProt Q99497); test: co-IP; co-immunoprecipitation of DJ-1 (WT and mutants expressed in HEK 293T cells) and Bcl-xL (Fig. S1b); who was precipitated is not told
[2] = molecular target: human DJ-1 mutant M3 (A104T), with Myc and DDK (Flag) tags on the C-terminus (human) (UniProt Q99497); test: as above
[3] = molecular target: human DJ-1 mutant M5 (L166P), with Myc and DDK (Flag) tags on the C-terminus (human) (UniProt Q99497); test: as above
[4] = molecular target: human DJ-1 mutant M4 (D149A), with Myc and DDK (Flag) tags on the C-terminus (human) (UniProt Q99497); test: as above
[5] = molecular target: human DJ-1, wild type, with Myc and DDK (Flag) tags on the C-terminus (human) (UniProt Q99497); test: co-IP; extracts of HEK293 / HEK-293T cells expressing flag-tagged WT or mutant DJ-1; beads conjugated to anti-FLAG antibody; western blot for endogenous ATP synthase β-subunit; extraction buffer 0.1 M NaCl, 20 mM HEPES pH 7.5, 0.3% Triton X-100, 4 °C
[6] = molecular target: human DJ-1 mutant M3 (A104T), with Myc and DDK (Flag) tags on the C-terminus (human) (UniProt Q99497); test: as above
[7] = molecular target: human DJ-1 mutant M5 (L166P), with Myc and DDK (Flag) tags on the C-terminus (human) (UniProt Q99497); test: as above
[8] = molecular target: human DJ-1 mutant M4 (D149A), with Myc and DDK (Flag) tags on the C-terminus (human) (UniProt Q99497); test: as above
[9] = molecular target: human DJ-1, wild type, with Myc and DDK (Flag) tags on the C-terminus (human) (UniProt Q99497); test: co-IP; in vitro IP: purified flag-ATP synthase β-subunit incubated with purified DJ-1, mixture immunoprecipitated with anti-DJ-1 antibody, western blot; both purified

binding [1]: binds
binding [2]: binds
binding [3]: binds
binding [4]: binds
Substance: Bcl-xL (from UniProt Q07817-1 1-233)

binding [5]: binds
binding [6]: binds
binding [7]: binds
binding [8]: binds
Substance: endogenous ATP synthase β-subunit (from UniProt P06576 48-529)

binding [9]: binds
Substance: purified recombinant FLAG-tagged ATP synthase β subunit protein (human ATP5B with Myc and DDK tags on the C-terminus) (from UniProt P06576 48-529)
